Conditions: human, microsomes, 1 h

Q: For `N#Cc1c(-c2csc(-c3no[n+]([O-])c3C#N)c2)no[n+]1[O-]` [Analogue 35], which “Microsomal stability, NADPH (+)” value is on record?
A: 12/52 % remaining

Q: And the “Microsomal stability, NADPH (−)” value?
A: 12/52 % remaining

Reference: article PMC2772170 (Journal of medicinal chemistry, 2009)
